Experimental data taken from PMC10163288.
The other results are listed elsewhere or left out.

B1: il2ra_site1_3nfp_normal_mot_HHH_b1_07078_000000231_0001_39_52_H_._ems_3hC_793_0001_0001_0000300013_0000001_0 (protein)
chain: SSDEELYKELNKLAWEAMRRADREALREVTEEAEELARKHNDPALKRLAEYIERLLEEAEKSSSS
B2: il2ra_site2_3nfp_sap_26_mot_7cf5847eaa050a71bc877a27954f5424_0001_1_af2_000000114_0001_17_30_H_._f45a65fa70d066dfb2bff9ecbb6071cf_0001_0001_0000600018_0000001_1 … (protein)
chain: SSSSSDEERLRELQEELRELLEEGDEEEAERVARELARLAFELGDEEAWAEALRILEELESSSSS
B3: il2ra_site1_1z92_normal_mot_HHH_b2_05172_af2_000000284_0001_1_18_H_._HHH_b2_08134_af2_0001_0000400053_0000001_0 (protein)
chain: SSSSDERSREQAEFVVRLAAEFGLDLEQIKILDEVARELEERGYSPEEIKEILEEVAEELGSSSS
B4: il2ra_site2_3nfp_normal_mot_HHH_b1_00660_af2_000000199_0001_40_57_H_._HHH_b1_02631_af2_0001_0000700034_0000001_0 (protein)
chain: SSSSDEEERVRELLEEIEELIKEGNPEEARELLREASNLAYELNNPELFAAVEELLYLLASSSSS
B5: il2ra_site1_2b5i_normal_mot_HHH_b1_06258_af2_000000112_0001_42_56_H_._HHH_b1_08392_0001_0000700060_0000001_1_af2pred_dldesign_0_af2pred (protein)
chain: SSSSSPEEEEAEDLFLEAVRLSRTDKEKAKELLEKALELAKKLGNEKLVAEIEYFLKRLESSSSS
B6: il2ra_site2_2erj_sap_19_mot_HHH_b1_00922_000000236_0001_39_57_H_._HHH_b2_03501_0001_0001400025_0000001_0_0001 (protein)
chain: SSSSDELHRAYELANEIMHALARGDEELFEELTEELQELIERLGSPSAEEILRALERHFNSSSSS
B7: il2ra_site1_3nfp_normal_mot_b9b1aa0f98829a21a591038753170461_0001_1_af2_000000119_0001_3_14_H_._HHH_b2_04628_af2_0001_0000200034_0000001_0_af2pred_0001_af2pred (protein)
chain: SSSSTEALEEARELTEEIRRLLKEGNKEEAEKLLRRLEELAEELNDPVLELLVRALQRLLNSSSS
B8: il2ra_site1_3nfp_sap_12_mot_HHH_b1_07180_af2_000000260_0001_1_19_H_._HHH_b2_06317_af2_0001_0000500010_0000001_0_0001_af2pred_0001_af2pred_1 (protein)
chain: SDEELIKKLVRIAVEQNSPRLLRKILRDFERYTGDPEEAERILEELIEEVLGDPEEARRLVEEAK
B9: il2ra_site1_2b5i_sap_12_mot_HHH_b2_04997_af2_000000138_0001_1_34_H_._HHH_b1_01670_0001_0000100005_0000001_0_0001_af2pred_0001_af2pred_1 (protein)
chain: SSSDIFERVLELYKEASKLLRNGNPEEAEEVVEEALRLAEEGNDENARKDLQNLLELIRRTSSSS
B10: il2ra_site1_3nfp_normal_mot_HHH_b2_03135_af2_000000097_0001_42_55_H_._ems_3hM_2462_af2_0001_0000100003_0000001_0_af2pred_0001_af2pred (protein)
chain: SSQEASELVEEVSKLLKEASRKDDKEIAEEAIELAEQLAKEVDDPVARELLERLIKAAEKIVEQS
B11: il2ra_site1_1z92_sap_9_mot_HHH_b1_03747_000000078_0001_21_38_H_._HHH_b2_03280_0001_0000500010_0000001_0_0001_af2pred_0001_af2pred_swapped (protein)
chain: SSSSSYERFKELAEKNIREAIEDGDEESARKDLEQLERYARRAKNPEVQKVVEELEELIDSSSSS
B12: il2ra_site2_3nfp_normal_mot_HHH_b2_07362_000000201_0001_1_15_H_._HHH_b2_05183_0002_0000700051_0000001_0 (protein)
chain: SSSSDREEVEELLEEAEELLKEGDPSEAFQVVMEASELAAKLDDPELAKAVFELYKLLLNSSSSS
B13: il2ra_site2_2erj_normal_mot_HHH_b1_07741_000000192_0001_1_20_H_._9b1ece5d1ebc94355a99c96473898622_0001_1_af2_0001_0000300001_0000001_0 (protein)
chain: DQEEFLRRAARENPETFIRYAELLAKDAGNPELLKLVEELKEEVEKGEIPPEEAAELVVEVLEEL
B14: il2ra_site2_3nfp_normal_mot_ems_p1-14H-GBL-14H-GABBL-15H_0148_0001_0001_0002_000000194_0001_18_31_H_._49469fcb01e68df237a8336044d9c6d5_0001_1_af2_0001_000020001 … (protein)
chain: PEAEAILFANEAGDPELYAALALLLQRLDKDPNDEEARELLEELIQLVRRGDPEELKELAKRIAK
B15: il2ra_site1_3nfp_normal_mot_HHH_b1_07180_af2_000000260_0001_1_19_H_._HHH_b2_04392_0001_0000100003_0000001_0_af2pred_0001_af2pred_swapped (protein)
chain: SSSSSEEAEEILEEARELIERLIEEGDFRRASEVAKEAQKLLRELGDHEALEELLRFAHEASSSS
B16: il2ra_site1_1z92_sap_13_mot_HHH_b1_07660_af2_000000114_0001_40_57_H_._HHH_b1_01257_0001_0000100006_0000001_0_0001 (protein)
chain: SSSSDRREKAFEWSEKLVEAALRLGNEELAEFAIRQLELLAEHTNDPELREIVKELKERLSSSSS
B17: il2ra_site2_3nfp_sap_16_mot_HHH_b2_04655_af2_000000128_0001_19_35_H_._HHH_b2_05884_0001_0000200009_0000001_0_0001 (protein)
chain: SSSSDKSEEYVRAALELAKRAEEEGDPEAAQRSLEIALLAAESAGNPELFREIEELLEELRSSSS
B18: il2ra_site2_3nfp_normal_mot_HHH_b1_03316_000000041_0001_39_56_H_._5f20bd37ef72b54d9d5808571b4331c8_0001_0001_0000400034_0000001_0_af2pred_0001_af2pred (protein)
chain: GPSQLIRELQKEDEELARLLFTLRLLVEELNDPRLKELLEEALELIEEGNPEEAEEVLREALRLP

target: il2ra, P01589; test: yeast display titration

Apparent Kd, inactive:
B1 no binding seen
B2 no binding seen
B3 no binding seen
B4 no binding seen
B5 no binding seen
B6 no binding seen
B7 no binding seen
B8 no binding seen
B9 no binding seen
B10 no binding seen
B11 no binding seen
B12 no binding seen
B13 no binding seen
B14 no binding seen
B15 no binding seen
B16 no binding seen
B17 no binding seen
B18 no binding seen

Already shown: entries from further up.
Apparent Kd, inactive:
B6 no binding seen
B7 no binding seen
